From patent US9505749B2, “Quinazolinone compounds and derivatives thereof” (AMGEN INC., priority 2012, dated 2016)

Key:
[1] = system: Axin2 accumulation in SW480 cells; assay: Axin2 384 immunofluorescence assay; assay type: cell-based; details: Homo sapiens, SW480, 24 h, read-out: Axin2 384 IF EC50
[2] = system: total β-catenin in SW480 colorectal cells; assay: Total β-catenin MSD 96-well plate assay for SW480 cells; details: Homo sapiens, SW480, read-out: SW480-Total beta-catenin (TBC) IC50 IP

For O=C(CCc1nc2ccccc2c(=O)[nH]1)N[C@H]1CC[C@H](c2nnc(-c3ccccc3F)o2)CC1 [Example 126, N-((1r,4r)-4-(5-(2-fluorophenyl)-1,3,4-oxadiazol-2-yl)cyclohexyl)-3-(4-oxo-3,4-dihydroquinazolin-2-yl)propanamide], the EC50 [1] was 2720 nM and the IC50 [2] was 1020 nM.
